In paper PMC8126888 (RSC Medicinal Chemistry, 2020):

Tested on: primary peritoneal mouse macrophages (PMM)
Conditions: PMM IC50 vs L. infantum IC50

Row | SMILES | SI (vs PMM)
1 | COc1ccc(S(=O)(=O)N(C)C)cc1NC(=O)Cn1c(=O)cnc2ccccc21 [Compound Z19025005] | 1
2 | CCN(CC)S(=O)(=O)c1cc(NC(=O)c2[nH]c(C)c(C(=O)OC)c2C)ccc1C [Compound Z26467494] | 2
3 | CCOc1ccc(NC(=O)c2[nH]c(C)c(C(=O)OC)c2C)cc1S(=O)(=O)N1CCCC1 [Compound Z29178369] | 1
4 | COc1ccc(S(=O)(=O)N(C)C)cc1NC(=O)CN1C(=O)COc2ccccc21 [Compound Z29560624] | 1
5 | CCOC(=O)c1c(C)[nH]c(C(=O)Nc2cccc(S(=O)(=O)N3CCOCC3)c2)c1C [Compound Z30001211] | 1
6 | COC(=O)c1c(C)[nH]c(C(=O)Nc2cccc(S(=O)(=O)N3CCCC3)c2)c1C [Compound Z30224758] | 1
7 | CCOC(=O)c1c(C)[nH]c(C(=O)Nc2ccc(Cl)c(S(=O)(=O)N3CCCCC3)c2)c1C [Compound Z30461235] | 5
8 | CCOC(=O)c1c(C)[nH]c(C(=O)NNC(=O)c2cccc(S(=O)(=O)N(CC)CC)c2)c1C [Compound Z30581529] | 1
9 | CC1Cc2ccccc2N1CC(=O)Nc1ccc(Cl)c(S(=O)(=O)N(C)C)c1 (stereo not drawn) [Compound Z30956600] | 1
10 | CN(C)S(=O)(=O)c1cccc(NC(=O)CNc2cccc3c2CCCC3)c1 [Compound Z30985744] | 1
11 | CN(Cc1ccccc1NCC(=O)Nc1cccc(S(=O)(=O)N(C)C)c1)C1CCCCC1 [Compound Z31013342] | 1
12 | O=S(=O)(NCc1cccs1)c1ccc2c(c1)CCCC2 [Compound Z45423905] | 1
13 | COc1ccccc1S(=O)(=O)N(Cc1ccccc1)Cc1ccccc1 [Compound Z45508946] | 94
14 | COc1ccc(OC)c(S(=O)(=O)N(Cc2ccccc2)Cc2ccccc2)c1 [Compound Z45508995] | 32
15 | CC1CCc2ccccc2N1CC(=O)Nc1ccc(Cl)c(S(=O)(=O)N(C)C)c1 (stereo not drawn) [Compound Z46500410] | 1
16 | Cc1ccc(NC(=O)c2[nH]c(C)c(C(=O)OC(C)C)c2C)cc1S(=O)(=O)N1CCCCC1 [Compound Z51733284] | 2
17 | CCCCNS(=O)(=O)c1cccc(NC(=O)c2cnc(C)cn2)c1 [Compound Z88583029] | 1
18 | CCCCNS(=O)(=O)c1cccc(NC(=O)c2cc3ccccc3[nH]2)c1 [Compound Z88584859] | 2
19 | CCCCNS(=O)(=O)c1cccc(NC(=O)c2cc(C)c(C)s2)c1 [Compound Z88584860] | 1

Row | SMILES | SI (vs PMM)
20 | CCCCNS(=O)(=O)c1cccc(NC(=O)c2ccc(C)c(OC)c2)c1 [Compound Z109591588] | 1
21 | COC(=O)c1c(C)[nH]c(C(=O)Nc2cccc(S(C)(=O)=O)c2)c1C [Compound Z109929482] | 1
22 | CC1CCc2ccccc2N1CC(=O)N1CCCc2cc(S(=O)(=O)N(C)C)ccc21 (stereo not drawn) [Compound Z195652240] | 1
23 | COc1ccc(S(=O)(=O)N(Cc2cccc(F)c2)Cc2cccc(F)c2)cc1OC [Compound Z220633200] | 3
24 | COc1ccc(S(=O)(=O)N(Cc2ccccc2C#N)Cc2ccccc2C#N)cc1OC [Compound Z220633250] | 7
25 | COc1ccc(S(=O)(=O)N(C)C)cc1NC(=O)C1CCCc2ccccc21 (stereo not drawn) [Compound Z300980532] | 1
26 | CN(C)S(=O)(=O)c1cccc(NC(=O)CN2CCCc3cc(F)cc(F)c32)c1 [Compound Z369155588] | 1
27 | CNC(=O)NC(=O)COc1ccc(S(N)(=O)=O)cc1 [Compound Z381095182] | 1
28 | COC(=O)c1cccc(C(=O)Nc2cccc(S(=O)(=O)N3CCCC3)c2)n1 [Compound Z441654950] | 1
29 | Fc1cccc(Cl)c1CNc1ccccc1-n1cccn1 [Compound Z739504072] | 1
30 | CCc1c(C(=O)Nc2cc(S(=O)(=O)NC)ccc2C)[nH]c(C)c1C(C)=O [Compound Z792473370] | 1
31 | CCCc1c(C(=O)Nc2cccc(S(=O)(=O)NCc3ccco3)c2)[nH]c(C)c1C(C)=O [Compound Z966334826] | 2
32 | Cc1ccc(NC(=O)CN(CC(C)C)c2cccc(O)c2)cc1S(=O)(=O)N(C)C [Compound Z1317978681] | 2
33 | Cc1ccc(NC(=O)CN2CCCCc3ccccc32)cc1S(=O)(=O)N1CCOCC1 [Compound Z1318043362] | 1
34 | CCCOc1cc(C)c(C)cc1S(=O)(=O)NC1CCCC1 [DNDI0002550535] | 1
35 | CCCCOc1cc(C)c(Cl)cc1S(=O)(=O)NCc1cccnc1 [DNDI0002558122] | 2
36 | COc1cc(S(=O)(=O)NCc2ccccc2)c(OC)cc1C [DNDI0002564850] | 1
37 | CCCCCOc1cc(C)c(Cl)cc1S(=O)(=O)NCc1ccco1 [DNDI0002567970] | 30
38 | CCCOc1cc(C)c(Cl)cc1S(=O)(=O)NCc1cccs1 [DNDI0002572626] | 1

Row | SMILES | SI (vs PMM)
39 | CCCCOc1cc(C)c(Cl)cc1S(=O)(=O)NCc1cccs1 [DNDI0002620367] | 41
40 | COc1cc(S(=O)(=O)NC(C)c2ccccc2)c(OC)cc1C (stereo not drawn) [DNDI0002622495] | 1
41 | CCCOc1cc(C)c(C)cc1S(=O)(=O)NCC1CCCO1 (stereo not drawn) [DNDI0002622936] | 1
42 | COc1ccc(Cl)cc1S(=O)(=O)N(CC(=O)N1CCN(C)CC1)Cc1ccccc1 [DNDI0003363387] | 1
43 | COc1ccc(OC)c(S(=O)(=O)N2CCCC2c2ccc(F)cc2)c1 (stereo not drawn) [DNDI0003363388] | 3
44 | COc1ccc(Cl)cc1S(=O)(=O)N(CC(=O)N1CCCC1)Cc1ccccc1 [DNDI0003363389] | 2
45 | CC(=O)Nc1ccc(Cl)c(C(=O)NC(Cn2ccnc2)c2ccccc2)c1 (stereo not drawn) [DNDI0003363391] | 1
46 | O=C(NC(Cn1ccnc1)c1ccccc1)c1ccc(-n2cnnn2)cc1 (stereo not drawn) [DNDI0003363392] | 1
47 | COc1ccc(C)cc1S(=O)(=O)N(CC(=O)N1CCOCC1)Cc1ccccc1 [DNDI0003363393] | 3
48 | CCN(CC)C(=O)CN(Cc1ccccc1)S(=O)(=O)c1ccc(OC)c(OC)c1 [DNDI0003363394] | 2
49 | COc1ccc(C)cc1S(=O)(=O)N(CC(=O)Nc1ccccc1)Cc1ccccc1 [DNDI0003363395] | 1
50 | COc1ccc(C)cc1S(=O)(=O)N(CC(=O)NCc1ccc(Cl)cc1)Cc1ccccc1 [DNDI0003363396] | 2
51 | COc1ccc(C)cc1S(=O)(=O)N(CC(N)=O)Cc1ccccc1 [DNDI0003363397] | 1
52 | COc1ccc(OC)c(S(=O)(=O)N2CCc3ccccc3C2)c1 [DNDI0003363398] | 1
53 | COc1ccc(C)cc1S(=O)(=O)N(CC(=O)O)Cc1ccccc1 [DNDI0003363399] | 1
54 | COc1ccc(S(=O)(=O)N(CC(=O)NC2CC2)Cc2ccccc2)cc1C [DNDI0003363400] | 1
55 | O=C(COc1ccc(Cl)cc1S(=O)(=O)NCc1ccccc1)N1CCOCC1 [DNDI0003363401] | 1
56 | COc1ccc(OC)c(S(=O)(=O)n2cc(C)nc2-c2ccccc2)c1 [DNDI0003363402] | 1

Same assay, conditions: selectivity index PMM vs L. infantum

Row | SMILES | SI (vs PMM)
57 | COc1ccc(CN(Cc2ccc(F)cc2)S(=O)(=O)c2cc(C#N)ccc2OC)cc1 [DNDI0003371172] | 22
